{
  "sequences": {"note": "Chains of the proteins cited; added tags and fusions are not shown. Lines headed by an entry give the natural chain unless they say otherwise; changes in a name come on top.", "UniProt Q92918, whole entry, looked up": "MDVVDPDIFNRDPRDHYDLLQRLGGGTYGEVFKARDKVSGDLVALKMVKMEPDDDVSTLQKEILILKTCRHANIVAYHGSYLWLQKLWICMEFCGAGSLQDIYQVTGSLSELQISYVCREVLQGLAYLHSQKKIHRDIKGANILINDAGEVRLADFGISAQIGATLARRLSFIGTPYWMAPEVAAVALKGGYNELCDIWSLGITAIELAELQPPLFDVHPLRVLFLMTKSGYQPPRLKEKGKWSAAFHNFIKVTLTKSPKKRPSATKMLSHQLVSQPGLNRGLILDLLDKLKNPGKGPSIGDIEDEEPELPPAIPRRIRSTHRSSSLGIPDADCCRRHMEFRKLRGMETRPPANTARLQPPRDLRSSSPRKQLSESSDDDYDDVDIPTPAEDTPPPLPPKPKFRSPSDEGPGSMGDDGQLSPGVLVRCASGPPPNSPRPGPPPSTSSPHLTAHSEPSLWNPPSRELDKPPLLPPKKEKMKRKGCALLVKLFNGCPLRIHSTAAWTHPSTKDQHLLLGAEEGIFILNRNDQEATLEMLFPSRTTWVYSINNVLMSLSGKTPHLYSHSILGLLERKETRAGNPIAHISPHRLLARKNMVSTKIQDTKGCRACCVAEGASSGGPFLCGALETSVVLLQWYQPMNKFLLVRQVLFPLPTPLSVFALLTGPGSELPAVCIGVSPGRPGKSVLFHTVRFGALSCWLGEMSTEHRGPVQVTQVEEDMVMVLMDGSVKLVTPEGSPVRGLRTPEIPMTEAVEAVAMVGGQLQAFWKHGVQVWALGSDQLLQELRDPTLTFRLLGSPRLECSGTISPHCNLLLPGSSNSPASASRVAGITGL", "UniProt Q9UBC2": "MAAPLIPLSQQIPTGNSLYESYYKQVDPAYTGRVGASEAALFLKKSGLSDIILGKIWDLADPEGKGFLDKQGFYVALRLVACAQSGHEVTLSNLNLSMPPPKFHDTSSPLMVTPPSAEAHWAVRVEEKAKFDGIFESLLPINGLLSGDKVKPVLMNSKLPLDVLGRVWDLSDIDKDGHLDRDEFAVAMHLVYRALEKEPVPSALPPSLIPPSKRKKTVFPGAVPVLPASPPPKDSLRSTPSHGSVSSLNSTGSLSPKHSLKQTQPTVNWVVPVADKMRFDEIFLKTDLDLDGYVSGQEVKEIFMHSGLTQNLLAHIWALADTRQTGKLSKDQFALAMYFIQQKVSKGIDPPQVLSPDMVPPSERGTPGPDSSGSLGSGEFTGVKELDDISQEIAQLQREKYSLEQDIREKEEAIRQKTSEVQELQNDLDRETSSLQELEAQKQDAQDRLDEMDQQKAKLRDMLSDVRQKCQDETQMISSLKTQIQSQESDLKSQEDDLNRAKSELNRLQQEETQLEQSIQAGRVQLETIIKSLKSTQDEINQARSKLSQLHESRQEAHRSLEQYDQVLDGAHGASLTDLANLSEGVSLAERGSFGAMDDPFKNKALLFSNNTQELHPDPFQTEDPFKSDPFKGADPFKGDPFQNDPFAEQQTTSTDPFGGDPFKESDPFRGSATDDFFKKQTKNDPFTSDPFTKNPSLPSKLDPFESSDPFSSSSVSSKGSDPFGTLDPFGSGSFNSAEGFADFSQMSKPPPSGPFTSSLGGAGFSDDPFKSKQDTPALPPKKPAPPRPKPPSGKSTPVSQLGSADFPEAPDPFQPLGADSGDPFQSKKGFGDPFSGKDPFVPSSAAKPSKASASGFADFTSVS", "UniProt Q66K89": "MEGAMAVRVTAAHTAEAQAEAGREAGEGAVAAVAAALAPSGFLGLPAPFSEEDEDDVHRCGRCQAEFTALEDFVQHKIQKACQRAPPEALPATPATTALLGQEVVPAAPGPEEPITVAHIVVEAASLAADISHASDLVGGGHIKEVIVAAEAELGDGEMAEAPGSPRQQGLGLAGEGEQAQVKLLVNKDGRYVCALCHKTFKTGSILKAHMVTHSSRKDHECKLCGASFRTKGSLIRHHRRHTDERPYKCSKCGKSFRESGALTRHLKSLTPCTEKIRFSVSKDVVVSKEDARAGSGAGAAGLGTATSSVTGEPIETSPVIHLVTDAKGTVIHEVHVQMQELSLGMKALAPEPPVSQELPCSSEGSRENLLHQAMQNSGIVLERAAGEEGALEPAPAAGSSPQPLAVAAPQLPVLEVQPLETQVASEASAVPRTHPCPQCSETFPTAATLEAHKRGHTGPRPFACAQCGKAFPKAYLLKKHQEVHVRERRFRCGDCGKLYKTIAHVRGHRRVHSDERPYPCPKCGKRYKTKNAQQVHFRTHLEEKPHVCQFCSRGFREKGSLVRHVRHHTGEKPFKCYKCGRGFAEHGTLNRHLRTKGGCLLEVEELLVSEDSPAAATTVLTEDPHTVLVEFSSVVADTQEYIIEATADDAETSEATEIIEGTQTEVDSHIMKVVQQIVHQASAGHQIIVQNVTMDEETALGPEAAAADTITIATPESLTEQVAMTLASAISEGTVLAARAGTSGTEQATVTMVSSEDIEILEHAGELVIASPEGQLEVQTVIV", "UniProt Q14CW9": "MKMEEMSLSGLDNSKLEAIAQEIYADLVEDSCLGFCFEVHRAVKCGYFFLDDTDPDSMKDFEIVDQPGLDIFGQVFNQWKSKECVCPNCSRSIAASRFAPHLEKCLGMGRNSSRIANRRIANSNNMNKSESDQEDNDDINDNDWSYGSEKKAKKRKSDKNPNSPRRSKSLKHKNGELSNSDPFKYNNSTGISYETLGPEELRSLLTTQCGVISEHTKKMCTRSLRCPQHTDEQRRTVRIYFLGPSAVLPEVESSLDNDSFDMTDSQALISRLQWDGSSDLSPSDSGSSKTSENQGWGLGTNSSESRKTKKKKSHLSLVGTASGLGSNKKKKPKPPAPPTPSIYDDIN", "UniProt P12829": "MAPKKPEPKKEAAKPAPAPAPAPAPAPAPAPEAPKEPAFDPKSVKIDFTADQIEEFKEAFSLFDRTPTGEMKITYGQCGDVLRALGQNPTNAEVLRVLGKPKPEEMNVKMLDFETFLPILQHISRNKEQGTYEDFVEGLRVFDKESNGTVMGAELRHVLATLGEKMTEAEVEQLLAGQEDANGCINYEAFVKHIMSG", "UniProt Q96AX1": "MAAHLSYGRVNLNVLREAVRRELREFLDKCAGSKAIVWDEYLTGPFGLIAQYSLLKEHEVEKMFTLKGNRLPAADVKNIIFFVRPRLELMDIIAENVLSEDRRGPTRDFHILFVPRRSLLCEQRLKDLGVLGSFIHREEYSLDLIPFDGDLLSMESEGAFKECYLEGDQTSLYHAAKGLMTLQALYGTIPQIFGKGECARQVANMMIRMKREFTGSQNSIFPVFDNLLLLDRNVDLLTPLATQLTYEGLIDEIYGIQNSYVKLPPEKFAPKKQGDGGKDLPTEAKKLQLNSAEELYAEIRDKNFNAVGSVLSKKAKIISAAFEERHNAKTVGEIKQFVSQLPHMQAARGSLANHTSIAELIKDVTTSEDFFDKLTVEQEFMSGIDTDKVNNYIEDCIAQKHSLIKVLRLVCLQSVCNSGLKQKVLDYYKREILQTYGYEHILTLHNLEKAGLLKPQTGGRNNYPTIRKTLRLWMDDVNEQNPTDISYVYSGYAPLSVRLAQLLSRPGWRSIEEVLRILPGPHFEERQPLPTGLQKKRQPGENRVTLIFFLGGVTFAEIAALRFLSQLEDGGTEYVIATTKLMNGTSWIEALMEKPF", "UniProt Q6P2D0": "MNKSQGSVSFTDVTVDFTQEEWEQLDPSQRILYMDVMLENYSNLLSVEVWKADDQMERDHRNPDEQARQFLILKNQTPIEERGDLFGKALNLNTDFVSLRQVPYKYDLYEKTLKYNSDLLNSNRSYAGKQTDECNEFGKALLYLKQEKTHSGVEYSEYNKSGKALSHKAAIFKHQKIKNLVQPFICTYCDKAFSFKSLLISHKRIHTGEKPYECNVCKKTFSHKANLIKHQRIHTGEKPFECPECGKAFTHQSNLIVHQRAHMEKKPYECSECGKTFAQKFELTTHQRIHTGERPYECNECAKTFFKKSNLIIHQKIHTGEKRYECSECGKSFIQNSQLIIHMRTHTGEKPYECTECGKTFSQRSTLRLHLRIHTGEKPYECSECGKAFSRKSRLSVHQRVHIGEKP", "UniProt P02686, whole entry": "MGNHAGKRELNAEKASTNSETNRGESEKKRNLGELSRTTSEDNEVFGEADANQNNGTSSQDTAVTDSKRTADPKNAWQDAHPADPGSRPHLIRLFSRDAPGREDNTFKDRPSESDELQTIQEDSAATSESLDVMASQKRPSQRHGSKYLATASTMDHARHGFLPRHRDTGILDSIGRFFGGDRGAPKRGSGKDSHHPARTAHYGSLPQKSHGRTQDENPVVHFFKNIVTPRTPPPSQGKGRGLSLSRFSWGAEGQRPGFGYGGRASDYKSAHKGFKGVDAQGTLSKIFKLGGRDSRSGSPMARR", "UniProt Q9P246, whole entry": "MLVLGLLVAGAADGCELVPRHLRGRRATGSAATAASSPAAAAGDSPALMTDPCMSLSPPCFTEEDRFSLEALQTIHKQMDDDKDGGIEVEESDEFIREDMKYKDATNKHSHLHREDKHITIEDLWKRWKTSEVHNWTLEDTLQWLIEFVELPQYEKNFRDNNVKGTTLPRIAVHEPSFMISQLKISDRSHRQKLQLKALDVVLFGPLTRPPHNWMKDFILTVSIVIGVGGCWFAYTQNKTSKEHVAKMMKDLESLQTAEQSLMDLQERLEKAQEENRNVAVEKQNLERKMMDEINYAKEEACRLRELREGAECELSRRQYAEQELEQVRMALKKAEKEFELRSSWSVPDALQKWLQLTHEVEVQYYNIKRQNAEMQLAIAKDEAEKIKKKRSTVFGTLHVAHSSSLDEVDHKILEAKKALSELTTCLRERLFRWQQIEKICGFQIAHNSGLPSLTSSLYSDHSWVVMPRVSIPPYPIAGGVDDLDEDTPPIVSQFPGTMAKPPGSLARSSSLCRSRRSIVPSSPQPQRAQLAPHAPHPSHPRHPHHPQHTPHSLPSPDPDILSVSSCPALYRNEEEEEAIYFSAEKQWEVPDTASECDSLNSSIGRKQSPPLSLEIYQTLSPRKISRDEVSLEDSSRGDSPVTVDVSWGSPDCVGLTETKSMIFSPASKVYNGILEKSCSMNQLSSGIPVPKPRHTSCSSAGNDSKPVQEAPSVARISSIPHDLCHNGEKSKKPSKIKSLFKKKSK", "UniProt Q86VS8": "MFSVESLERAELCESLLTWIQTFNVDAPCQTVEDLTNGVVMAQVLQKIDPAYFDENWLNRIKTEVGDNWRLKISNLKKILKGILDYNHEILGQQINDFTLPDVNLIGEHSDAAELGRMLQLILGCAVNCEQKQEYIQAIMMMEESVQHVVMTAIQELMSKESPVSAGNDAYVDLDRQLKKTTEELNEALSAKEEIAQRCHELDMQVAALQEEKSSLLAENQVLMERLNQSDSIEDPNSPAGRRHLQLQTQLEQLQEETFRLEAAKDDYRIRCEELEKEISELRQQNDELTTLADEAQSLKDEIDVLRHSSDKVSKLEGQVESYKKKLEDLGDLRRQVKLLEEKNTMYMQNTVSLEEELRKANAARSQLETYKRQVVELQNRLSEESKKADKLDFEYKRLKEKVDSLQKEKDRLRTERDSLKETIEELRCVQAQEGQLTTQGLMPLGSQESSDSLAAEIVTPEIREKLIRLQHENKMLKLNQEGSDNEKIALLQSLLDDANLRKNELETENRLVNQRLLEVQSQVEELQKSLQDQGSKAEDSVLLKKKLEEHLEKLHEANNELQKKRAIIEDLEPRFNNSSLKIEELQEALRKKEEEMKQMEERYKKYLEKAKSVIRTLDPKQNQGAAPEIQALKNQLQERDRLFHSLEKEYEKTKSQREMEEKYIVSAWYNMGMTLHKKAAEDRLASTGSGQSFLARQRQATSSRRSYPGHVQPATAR", "UniProt Q15782": "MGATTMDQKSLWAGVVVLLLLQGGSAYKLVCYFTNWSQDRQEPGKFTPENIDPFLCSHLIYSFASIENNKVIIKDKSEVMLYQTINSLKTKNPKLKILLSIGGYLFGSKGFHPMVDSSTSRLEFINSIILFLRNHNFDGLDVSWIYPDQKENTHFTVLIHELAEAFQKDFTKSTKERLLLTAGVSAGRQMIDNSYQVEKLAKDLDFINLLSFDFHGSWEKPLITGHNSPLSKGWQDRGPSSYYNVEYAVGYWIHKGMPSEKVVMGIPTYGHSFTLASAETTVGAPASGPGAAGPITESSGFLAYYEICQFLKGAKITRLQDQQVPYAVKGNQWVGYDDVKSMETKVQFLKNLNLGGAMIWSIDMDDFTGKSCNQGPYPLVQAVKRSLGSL", "UniProt O60499": "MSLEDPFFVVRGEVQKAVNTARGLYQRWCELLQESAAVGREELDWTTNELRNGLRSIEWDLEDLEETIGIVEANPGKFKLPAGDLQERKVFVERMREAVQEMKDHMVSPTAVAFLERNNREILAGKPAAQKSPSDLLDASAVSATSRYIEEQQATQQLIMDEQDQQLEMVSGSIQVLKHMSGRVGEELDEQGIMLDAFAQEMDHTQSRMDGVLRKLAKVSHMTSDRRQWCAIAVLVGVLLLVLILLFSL"},
  "source": "the supplement of paper PMC6411743",
  "note": "± gives the standard deviation of the averaged measurements. The list shows a part of the results, in another mix than the full data. Small differences around the control level are noise.",
  "data": [
    {"compound": "Nc1ncnc2c1ncn2[C@@H]1O[C@H](COP(=O)(O)OP(=O)(O)OP(=O)(O)O)[C@@H](O)[C@H]1O [adenosine triphosphate]", "assay": "NP40-soluble protein abundance relative to vehicle (solubility fold change) (ratio); higher = more soluble protein in presence of ATP", "details": "concentration: 0.5mM", "summary_of_the_method": "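Values are fold changes against the detergent-processed vehicle, based on vsn-normalised intensities. Jurkat crude lysate was treated at eight concentrations from 0.1 to 10 mM (10 min at room temperature, then 3 min at 37 °C), solubilised with 0.8% NP40 and benzonase, ultracentrifuged and analysed by TMT-labelled LC-MS/MS over three independent experiments.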", "values": [
      {"target": "H0Y659 and related entries (UniProt Q7Z6Z7)", "NP40-soluble protein abundance": "0.989 ± 0.034"},
      {"target": "K7ER95 and related entries (UniProt Q92918)", "NP40-soluble protein abundance": "1.05 ± 0.028"},
      {"target": "H3BRQ0 and related entries (UniProt Q96CD2)", "NP40-soluble protein abundance": "0.967 ± 0.033"},
      {"target": "M0QY01 and related entries (UniProt Q9UBC2)", "NP40-soluble protein abundance": "0.965 ± 0.028"},
      {"target": "H0YLM8 and related entries (UniProt Q8TDJ6)", "NP40-soluble protein abundance": "0.972 ± 0.022"},
      {"target": "H3BUJ7 and related entries (UniProt Q66K89)", "NP40-soluble protein abundance": "1.03 ± 0.017"},
      {"target": "K7EKG9 and related entries (UniProt Q14CW9)", "NP40-soluble protein abundance": "0.984 ± 0.084"},
      {"target": "I3L1K6 and related entries (UniProt P12829)", "NP40-soluble protein abundance": "0.861 ± 0.17"},
      {"target": "H3BMM5 and related entries (UniProt Q96AX1+H3BMM5)", "NP40-soluble protein abundance": "1.02 ± 0.039"},
      {"target": "J3KNQ1 and related entries (UniProt Q6P2D0)", "NP40-soluble protein abundance": "1 ± 0.071"},
      {"target": "J3QQK6 and related entries (UniProt P02686)", "NP40-soluble protein abundance": "0.788 ± 0.1"},
      {"target": "H0Y860 and related entries (UniProt Q9P246)", "NP40-soluble protein abundance": "1.09 ± 0.043"},
      {"target": "J3KNA0 and related entries (UniProt Q15070)", "NP40-soluble protein abundance": "0.958 ± 0.059"},
      {"target": "H0YDM4 and related entries (UniProt Q86VS8)", "NP40-soluble protein abundance": "0.929 ± 0.035"},
      {"target": "H0YE91 and related entries (UniProt Q15782)", "NP40-soluble protein abundance": "1.06 ± 0.063"},
      {"target": "H3BLZ8 (UniProt Q92841)", "NP40-soluble protein abundance": "0.994 ± 0.094"},
      {"target": "K7EIY4 and related entries (UniProt O60499)", "NP40-soluble protein abundance": "0.975 ± 0.06"},
      {"target": "H0Y7P7 and related entries (UniProt Q9UG56)", "NP40-soluble protein abundance": "0.924 ± 0.063"}
    ]}
  ]
}
